Reference: PubChem BioAssay (NCATS)
This list was built around the results that the source calls inconclusive (neither active nor inactive); the mix of calls is not that of the screen. Where the call is inconclusive, the potency comes from a doubtful curve fit. Active and inactive are the calls of the source. Calls come from the whole dose curve; as a rule, active = well fitted curve in the direction sought with a large enough effect; inconclusive = small, poorly fitted or top-dose-only effect, or another doubt; inactive = no such curve, though single readings can be large; an effect the other way counts as inactive or inconclusive.

Experiments:
[1] = Quantitative High-Throughput drug screen in 47 multiple myeloma cell lines against the NCATS MIPE library collection: JIM3_ECACC cell viability assay (AID 1918963; note: nearly all actives have a fitted effect of over 35% in size); conditions: JIM3 myeloma viability, CellTiter-Glo ATP, 48 h; series mostly up to 45.8 µM
How it was run: (§1)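 Myeloma cells (500 per well) were exposed to MIPE 4.0 compounds by pin transfer and incubated 48 hours at 37C, 5% CO2. Viability was read as ATP by CellTiter-Glo luminescence, normalised to DMSO (100%) and media-only (0%) wells.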

[2] = Quantitative High-Throughput drug screen in 47 multiple myeloma cell lines against the NCATS MIPE library collection: JIM1_ECACC cell viability assay (AID 1918964); conditions: JIM1 myeloma viability, CellTiter-Glo ATP luminescence, 48 h; viability (% of DMSO): at 45.8 µM (top of the series)
How it was run: (§2)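 Primary qHTS used for cherry-picking: cells at 500/well, library compounds for 48 h (37C, 5% CO2), luminescent ATP assay.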

[3] = Quantitative High-Throughput drug screen in 47 multiple myeloma cell lines against the NCATS MIPE library collection: INA6_PLB cell viability assay (AID 1918965; note: nearly all actives have a fitted effect of over 55% in size); conditions: INA6 myeloma viability, CellTiter-Glo ATP luminescence, 48 h; viability (% of control): at 45.8 µM (top of the series)
How it was run: (§3)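 CellTiter-Glo ATP luminescence gave viability after 48 h compound treatment at 37C of 500 multiple myeloma cells per well. Normalisation used DMSO-only wells as 100% and media-only wells as 0% viability; primary qHTS of approved and investigational drugs.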

[4] = Quantitative High-Throughput drug screen in 47 multiple myeloma cell lines against the NCATS MIPE library collection: JJN3_DSMZ cell viability assay (AID 1918966; note: nearly all actives have a fitted effect of over 50% in size); conditions: JJN3 myeloma cells viability, CellTiter-Glo ATP, 48 h; series mostly up to 45.8 µM
How it was run: as §2

[5] = Quantitative High-Throughput drug screen in 47 multiple myeloma cell lines against the NCATS MIPE library collection: KMS12BM_JCRB cell viability assay (AID 1918971); conditions: KMS12BM myeloma viability, CellTiter-Glo ATP, 48 h; series mostly up to 45.8 µM; note: nearly all actives have a fitted effect of over 35% in size
How it was run: as §1

[6] = Quantitative High-Throughput drug screen in 47 multiple myeloma cell lines against the NCATS MIPE library collection: KMS12PE_JCRB cell viability assay (AID 1918972); conditions: KMS12PE myeloma viability, CellTiter-Glo ATP, 48 h; viability: at 45.8 µM (top of the series); note: nearly all actives have a fitted effect of over 30% in size
How it was run: as §3

[7] = Quantitative High-Throughput drug screen in 47 multiple myeloma cell lines against the NCATS MIPE library collection: KMS20_JCRB cell viability assay (AID 1918973); conditions: CellTiter-Glo ATP, 48 h; viability (% of DMSO): at 45.8 µM (top of the series); note: nearly all actives have a fitted effect of over 45% in size
How it was run: as §2

[8] = Quantitative High-Throughput drug screen in 47 multiple myeloma cell lines against the NCATS MIPE library collection: KMS21BM_JCRB cell viability assay (AID 1918974); conditions: ATP luminescence, 48 h; viability: at 45.8 µM (top of the series) unless noted
How it was run: as §2

[9] = Quantitative High-Throughput drug screen in 47 multiple myeloma cell lines against the NCATS MIPE library collection: MMM1_PLB cell viability assay (AID 1918976); conditions: MMM1 myeloma cells viability, CellTiter-Glo, 48 h; series mostly up to 45.8 µM; note: nearly all actives have a fitted effect of over 35% in size
How it was run: (§4)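 ATP-based CellTiter-Glo luminescence after 48 h drug exposure (37 °C, 5% CO2) of 500 myeloma cells per well. DMSO-only wells set 100% viability, media-only wells 0%; MIPE 4.0 library added by pin tool.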

[10] = Quantitative High-Throughput drug screen in 47 multiple myeloma cell lines against the NCATS MIPE library collection: NCIH929_DSMZ cell viability assay (AID 1918978); conditions: NCI-H929 myeloma viability, CellTiter-Glo ATP, 48 h; series mostly up to 45.8 µM; note: nearly all actives have a fitted effect of over 35% in size
How it was run: as §4

[11] = Quantitative High-Throughput drug screen in 47 multiple myeloma cell lines against the NCATS MIPE library collection: MM1S_ATCC cell viability assay (AID 1918980); conditions: MM1S myeloma viability, CellTiter-Glo ATP luminescence, 48 h; series mostly up to 45.8 µM; note: nearly all actives have a fitted effect of over 45% in size
How it was run: as §4

[12] = Quantitative High-Throughput drug screen in 47 multiple myeloma cell lines against the NCATS MIPE library collection: KMS28PE_JCRB cell viability assay (AID 1918983); conditions: KMS28PE multiple myeloma viability, CellTiter-Glo ATP, 48 h; series mostly up to 45.8 µM; note: nearly all actives have a fitted effect of over 35% in size
How it was run: as §4

[13] = Quantitative High-Throughput drug screen in 47 multiple myeloma cell lines against the NCATS MIPE library collection: Karpas25_ECACC cell viability assay (AID 1918968; note: nearly all actives have a fitted effect of over 35% in size); conditions: Karpas25 myeloma viability, CellTiter-Glo ATP, 48 h; viability (% of control): at 45.8 µM (top of the series)
How it was run: as §2

[14] = Quantitative High-Throughput drug screen in 47 multiple myeloma cell lines against the NCATS MIPE library collection: KMS26_JCRB cell viability assay (AID 1918975); conditions: KMS26 myeloma cells viability, CellTiter-Glo ATP, 48 h; viability (% of DMSO): at 45.8 µM (top of the series); note: nearly all actives have a fitted effect of over 45% in size
How it was run: as §1

[15] = Quantitative High-Throughput drug screen in 47 multiple myeloma cell lines against the NCATS MIPE library collection: MOLP8_DSMZ cell viability assay (AID 1918977); conditions: MOLP8 myeloma viability, CellTiter-Glo ATP luminescence, 48 h; viability (% of control): at 45.8 µM (top of the series); note: nearly all actives have a fitted effect of over 45% in size
How it was run: as §4

[16] = Quantitative High-Throughput drug screen in 47 multiple myeloma cell lines against the NCATS MIPE library collection: OCIMY1_PLB cell viability assay (AID 1918979); conditions: OCI-MY1 myeloma viability, CellTiter-Glo ATP, 48 h; series mostly up to 45.8 µM; note: nearly all actives have a fitted effect of over 35% in size
How it was run: as §4

[17] = Quantitative High-Throughput drug screen in 47 multiple myeloma cell lines against the NCATS MIPE library collection: LP1_DSMZ cell viability assay (AID 1918982); conditions: LP1 myeloma viability, CellTiter-Glo ATP luminescence, 48 h; series mostly up to 45.8 µM; note: nearly all actives have a fitted effect of over 35% in size
How it was run: as §4

[18] = Quantitative High-Throughput drug screen in 47 multiple myeloma cell lines against the NCATS MIPE library collection: MM1R_ATCC cell viability assay (AID 1918981); conditions: MM1R multiple myeloma cells, CellTiter-Glo viability, 48 h; series mostly up to 45.8 µM; note: nearly all actives have a fitted effect of over 35% in size
How it was run: as §4

[19] = Quantitative High-Throughput drug screen in 47 multiple myeloma cell lines against the NCATS MIPE library collection: H1112_PLB cell viability assay (AID 1918967; note: nearly all actives have a fitted effect of over 30% in size); conditions: H1112 myeloma cells viability, ATP luminescence, 48 h; viability: at 45.8 µM (top of the series)
How it was run: as §2

[20] = Quantitative High-Throughput drug screen in 47 multiple myeloma cell lines against the NCATS MIPE library collection: KMS27_JCRB cell viability assay (AID 1918970); conditions: KMS27 myeloma cells, CellTiter-Glo ATP viability, 48 h; viability (% of DMSO): at 45.8 µM (top of the series); note: nearly all actives have a fitted effect of over 30% in size
How it was run: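 Each line is seeded at 500 cells per well and treated with library compounds for 48 hours under 37 °C, 5% CO2. CellTiter-Glo is then added for 5 min at room temperature before median relative luminescence is recorded.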

Measured: Potency
Potency is the fitted concentration of half-maximal effect.

O=C1N(c2ccccc2)c2ccccc2C1(Cc1ccncc1)Cc1ccncc1
inactive: [1] | [4] | [6] | [10] | [12]
active: [7] 0.001 µM
inconclusive: [2] 8.33 µM [cytotoxic, single point] | [3] 33.2 µM [cytotoxic, single point] | [5] 1.2 nM [rising, full curve, poor fit] | [8] 33.2 µM [rising, partial curve] | [9] 6.6 nM [rising, full curve, poor fit] | [11] 33.2 µM [cytotoxic, partial curve, poor fit]

Cc1nc2c([nH]1)CCN(C(=O)c1ccc(NC(=O)c3ccccc3-c3ccccc3)cc1)c1ccccc1-2
inconclusive: [1] 33.2 µM [cytotoxic, single point] | [3] 18.7 µM [cytotoxic, partial curve, poor fit] | [13] 29.6 µM [cytotoxic, single point] | [5] 23500 nM [cytotoxic, single point] | [6] 16.6 µM [cytotoxic, partial curve] | [7] 9.35 µM [cytotoxic, full curve, poor fit] | [9] 33200 nM [cytotoxic, single point] | [10] 37.2 µM [cytotoxic, single point] | [16] 2.6 nM [rising, full curve, poor fit] | [17] 23.5 µM [cytotoxic, single point]
inactive: [2] | [4] | [14] | [15] | [11]

CC=CC(=O)N(CC)c1ccccc1C
inactive: [1] | [2] | [3] | [13] | [5] | [7] | [10] | [18] | [12]
inconclusive: [4] 5.3 nM [cytotoxic, full curve, poor fit] | [8] 37.2 µM [cytotoxic, single point]
active: [9] 3720 nM

COc1cc([C@@H]2c3cc4c(cc3[C@H](O)[C@H]3COC(=O)[C@@H]23)OCO4)cc(OC)c1OC
inconclusive: [2] 0.0372 µM [cytotoxic, full curve] | [8] 0.0833 µM [cytotoxic, full curve, poor fit] | [16] 93.5 nM [cytotoxic, full curve] | [17] 0.166 µM [cytotoxic, full curve]
active: [1] 0.118 µM | [3] 0.148 µM | [19] 0.526 µM | [7] 1.32 µM | [14] 0.372 µM | [9] 469 nM

NC[C@@H]1O[C@@H](O[C@H]2[C@@H](O)[C@H](O[C@@H]3[C@@H](O)[C@@H](N)C[C@H](N)[C@H]3O[C@H]3O[C@H](CN)[C@@H](O)[C@@H](O)[C@H]3N)O[C@H]2CO)[C@H](N)[C@@H](O)[C@@H]1O
inconclusive: [5] 6.6 nM [cytotoxic, full curve, poor fit] | [7] 2.35 µM [cytotoxic, full curve, poor fit] | [8] 29.6 µM [rising, partial curve] | [9] 26.4 nM [cytotoxic, full curve, poor fit] | [15] 0.0083 µM [cytotoxic, full curve, poor fit] | [11] 37.2 µM [cytotoxic, partial curve, poor fit] | [12] 0.0118 µM [cytotoxic, full curve, poor fit]
inactive: [1] | [2] | [3] | [4] | [20] | [14]

N#Cc1ccc(C(c2ccc(C#N)cc2)n2cncn2)cc1
inactive: [6]
inconclusive: [1] 23.5 µM [cytotoxic, single point] | [2] 18.7 µM [cytotoxic, partial curve, poor fit] | [3] 18.7 µM [cytotoxic, partial curve, poor fit] | [19] 23.5 µM [cytotoxic, partial curve, poor fit] | [13] 18.7 µM [cytotoxic, partial curve] | [20] 13.2 µM [cytotoxic, partial curve] | [5] 2960 nM [cytotoxic, partial curve, poor fit] | [8] 14.8 µM [cytotoxic, partial curve, poor fit] | [14] 14.8 µM [cytotoxic, partial curve, poor fit] | [15] 10.5 µM [cytotoxic, full curve, poor fit] | [11] 23.5 µM [cytotoxic, partial curve, poor fit] | [18] 20.9 µM [cytotoxic, partial curve]
active: [12] 6.62 µM
